Drawing on PubChem BioAssay AID2685 (National Center for Advancing Translational Sciences (NCATS), 2010), this text covers cell number change and AC50 for 16 compounds.

The list shows a part of the results. The main result of the screen is listed elsewhere. These columns were measured beside it and carry no call. The list favours compounds with an active or inconclusive main result. The note in brackets gives the kind of curve behind each potency; many fits are weak.

One may read the AC50 as the concentration giving half of the maximal activity seen. A low value points to greater potency.

This test can be described thus: qHTS Assay for Lipid Storage Modulators in Drosophila S3 Cells.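 As to cell number change: cells counted by Cell Tracker Red CMTPX staining in the red channel.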 To be noted: BODIPY lipid droplet fluorescence, 18-24 h; for cell number change: measured here: cell count max response, cells fed with added oleic acid. The gist of the method:
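Laser-scanning cytometry quantifies lipid droplet accumulation (500–530 nm total intensity; droplet/cell object ratio) in oleic acid-fed (400 uM added) Drosophila S3 cells treated with a concentration series. 20 uM Triacsin C defined 100% inhibition.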

[1] abbreviates: measured here: lipid fluorescence (Fed channel) AC50, cells fed with added oleic acid.
Setting [2] is: measured here: cell number channel AC50, cells fed with added oleic acid.

As to `Cc1ccc(C(C(=O)NC(C)(C)C)N(Cc2cccs2)C(=O)c2ccc3c(c2)OCCO3)cc1` (configuration not stated), the cell number change came out at 13.1%. Also, the concentration at half-maximal activity (AC50) under setting [1] was 580 nM [falling, single point].
Turning to `Cc1cccc(C(=O)OC2CCN(C)CC2)c1`, the cell number change is 17.5%. Moreover, the AC50 under setting [1] is 259 nM [falling, full curve].
Turning to `CC1=CCC2C(=O)N(c3nc(C)cc(C)n3)C(=O)C2C1` (configuration not stated), the cell number change is -185%. Besides, the AC50 under setting [2] is 29100 nM [falling, single point].
With `COCCNC(=O)C(c1ccc(OC)cc1)N(Cc1ccco1)C(=O)CCC(=O)Nc1ccccn1` (configuration not stated), the cell number change was -1.9%. Besides, the concentration at half-maximal activity (AC50) under setting [1] was 206 nM [rising, single point].
For `CC(C)N1CCN(S(=O)(=O)c2ccccc2)CC1`, the cell number change amounted to 22%. For the same compound, under setting [1], the concentration at half-maximal activity (AC50) is 51.7 nM [rising, full curve, poor fit].
On to `CCOC(=O)c1c(Cc2ccccc2)c[nH]c1C`, for which the cell number change was 13%.
In the case of `CN(CCO)S(=O)(=O)c1ccc2c(c1)C(=NO)c1cc(S(=O)(=O)N(C)CCO)ccc1-2`, the cell number change is 5.33%. The AC50 under setting [1] is 146 nM [falling, full curve, poor fit].
`O=C(CSc1ccc(F)cc1)NC(=O)NCc1ccccc1`: the cell number change was -32.5%. Further, the concentration at half-maximal activity (AC50) under setting [1] was 7310 nM [rising, partial curve, poor fit].
In the case of `CCOc1ccc(CCNC(=O)c2cc(S(=O)(=O)N3CCOCC3)ccc2C)cc1OCC`, the cell number change turned out to be 19.9%. Besides, the AC50 under setting [1] is 29100 nM [rising, single point].
Turning to `Cc1ccccc1C(=O)N/N=C/c1ccc(Sc2ccccn2)o1`, the cell number change was -8.65%. Under setting [2], the half-maximal activity concentration (AC50) was 4110 nM [falling, partial curve, poor fit]. Further, the AC50 under setting [1] is 13000 nM [falling, partial curve].
Turning to `CCN(CC)S(=O)(=O)c1cccc(-c2nc3n(n2)Cc2ccccc2-3)c1`, the cell number change was -25.4%. Moreover, the AC50 under setting [1] is 6510 nM [falling, single point].
Consider `O=C(NNC(=S)Nc1ccccc1C(F)(F)F)c1ccc(Br)o1`, for which the cell number change is 13.4%. Further, the AC50 under setting [1] was 20600 nM [rising, single point].
In the case of `Cc1ccccc1N(CC(=O)NCCSC1CCCCC1)S(=O)(=O)c1ccccc1`, the cell number change came out at 3.35%. Also, under setting [1], the concentration at half-maximal activity (AC50) was 51.7 nM [falling, full curve, poor fit].
For `O=C(Nc1ccc(C(=O)N2CCOCC2)cc1)c1ccc([N+](=O)[O-])cc1`, the cell number change came to 12.5%. Further, the AC50 under setting [1] was 1160 nM [falling, single point].
`CCCCCOC(=O)C1[C@H]2C(=O)N(CCCOC)C[C@]23C=C[C@H]1O3` (some centres not stated): the cell number change is -1.75%. The AC50 under setting [1] is 6510 nM [rising, single point].
In the case of `CC(NC(=O)C1CCN(S(=O)(=O)c2ccc3nc4c(c(C(=O)O)c3c2)CCCC4)CC1)c1ccccc1` (configuration not stated), the cell number change is -5.9%. In addition, the AC50 under setting [1] is 1640 nM [rising, partial curve].
